Some of the results follow.

Sequences of proteins named here, by UniProt entry; tags and fusion partners are left off.
UniProt Q0JBA9, entry or part of it: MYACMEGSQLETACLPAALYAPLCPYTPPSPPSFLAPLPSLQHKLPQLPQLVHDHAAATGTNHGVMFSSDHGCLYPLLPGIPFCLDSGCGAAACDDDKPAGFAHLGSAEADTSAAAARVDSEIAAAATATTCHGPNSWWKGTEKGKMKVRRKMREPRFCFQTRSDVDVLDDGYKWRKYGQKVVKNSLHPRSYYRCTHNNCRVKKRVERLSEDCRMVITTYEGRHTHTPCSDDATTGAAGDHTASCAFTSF

The target of this experiment is OsWRKY34 (Oryza sativa, UniProt Q0JBA9 1-250). Briefly: protein-binding microarray (RPBM); PBS, 2% BSA, 51.3 ng/ul salmon testes DNA, 50 uM zinc acetate, 200 nM TF, 25 C, 1 h; high values mean tight binding. Conditions: protein: recombinant; tags: N-terminal polyhistidine and DsRed monomer fusion (pET32a); label: CyDye5-dUTP incorporated in the synthesized complementary strand; 3' TTTTT single-stranded linker to array surface; dsDNA, one strand shown. Put shortly:
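Transcription factors were each fused at the N-terminus to a polyhistidine tag plus DsRed and expressed in E. coli BL21-CodonPlus before Ni–NTA purification. Binding to a double-stranded custom Agilent array was carried out with 200 nM protein at 25 °C for 1 h in PBS, 2% BSA, salmon testes DNA and 50 µM zinc acetate. The binding signal is per-feature fluorescence intensity, in arbitrary units, on an Axon 4000B scanner.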
In the case of “GCCTCCAACCCGCGCATCCTGTGCGCCCGCATCGACCGCTCGGAGTCACCTAGTGCAG”, the binding signal was 9340 fluorescence intensity (a.u.).
As for “CTCCGGTCCGTTAGCTCACTCAACCCATCTCCACCCAAATCGGAGTCACCTAGTGCAG”, the binding signal is 10100 fluorescence intensity (a.u.).
For the sequence “GGTACGTTATCCGTGCATGAGTCGATTTTTAATTTTGTTCCGGAGTCACCTAGTGCAG”, the binding signal was 8650 fluorescence intensity (a.u.).
As to “CTGGCCTCCCCGCCCCGCCGCCGCCGCCGCCGCATCACCCCGGAGTCACCTAGTGCAG”, the binding signal is 10400 fluorescence intensity (a.u.).
Consider “GCCCGCCGCTATCTGCCTCCATCGTCCACTGATTCCTTCTCGGAGTCACCTAGTGCAG”, for which the binding signal is 8380 fluorescence intensity (a.u.).
Under “TCCCTACACCGTCGCCGTCAGCCGTTGGACATCTAGATCACGGAGTCACCTAGTGCAG” stands 11900 fluorescence intensity (a.u.); under “TGCAGATTTGGTTTTTCTTTTTTTTCGCACGTTCTCTTTCCGGAGTCACCTAGTGCAG”, 15700 fluorescence intensity (a.u.); under “GACCATCACACGCCCATCGCCAACGGCGGCGGCAGCAGCACGGAGTCACCTAGTGCAG”, 8240 fluorescence intensity (a.u.).
“TTATTTTGAATTTTATTTTCGTGTTCCAAAGTCAAAATTTCGGAGTCACCTAGTGCAG”: the binding signal was 12200 fluorescence intensity (a.u.).
Under “CAGGTGTGACTTGGTTTATTATTAAATGTGTTTTTAGCATCGGAGTCACCTAGTGCAG” stands 9210 fluorescence intensity (a.u.); under “CACTATCTTTTCAATTCTGTATTTTTCGGTCGTTTTAGCACGGAGTCACCTAGTGCAG”, 9100 fluorescence intensity (a.u.).
Under “CACTTACACTTTCATTTTCGCTTCATGTAAAATAGTCAACCGGAGTCACCTAGTGCAG” stands 8980 fluorescence intensity (a.u.).
Under “CCAATACTTTCCTTTATTTTACCAGGCACCATGCTTATTTCGGAGTCACCTAGTGCAG” stands 8430 fluorescence intensity (a.u.); under “AATTATCACTTCAGTACCATCACTTTGTTCATTTCCTTACCGGAGTCACCTAGTGCAG”, 11100 fluorescence intensity (a.u.); under “TCCCTCATTTGACAAATTATGGCAAACGTTTTGCAACTTCCGGAGTCACCTAGTGCAG”, 8340 fluorescence intensity (a.u.).
On to “GCTCATCAGACTCCAAACAACTCACACAGCTCGCACTTTCCGGAGTCACCTAGTGCAG”, for which the binding signal is 9970 fluorescence intensity (a.u.).
As for “TGCGTCCGAACTTTCACTTACGTTTTCCATATATATAGTTCGGAGTCACCTAGTGCAG”, the binding signal was 8130 fluorescence intensity (a.u.).
As for “CTCGCTTTTCTTCCTTTTCCTGCAATTTCTGTTTCGTTTACGGAGTCACCTAGTGCAG”, the binding signal was 10100 fluorescence intensity (a.u.).
Take “TTTCCTGTGATCCAATCAAACGACCATTCCTGTGTTTTTTCGGAGTCACCTAGTGCAG”: the binding signal is 12200 fluorescence intensity (a.u.).
The figure for “AGGAGAGAGTAGTACAGATGGCAACAACAATTGATTACAACGGAGTCACCTAGTGCAG” is 9560 fluorescence intensity (a.u.).
For the sequence “TGTTGGCCTGATAAGATTTTTCCATTACTCTCTCAGCTGCCGGAGTCACCTAGTGCAG”, the binding signal was 10100 fluorescence intensity (a.u.).
The figure for “GTGTGTGAGTTGCGTGTGCTGTGACAGCTGTCACGGGTTGCGGAGTCACCTAGTGCAG” is 8240 fluorescence intensity (a.u.).
The figure for “TATTCCCAGCTGGTAACTCTATCCATTGACGGCTGTGTTTCGGAGTCACCTAGTGCAG” is 9650 fluorescence intensity (a.u.).
The figure for “CGATGCGTCAGCCGTGAACTCGCAGGTGGAGGGCGGCGGGCGGAGTCACCTAGTGCAG” is 9420 fluorescence intensity (a.u.); for “CCCTGTGTGATTTGAGATCAGTGTTTGTTTTCTTTGTATACGGAGTCACCTAGTGCAG” it is 8490 fluorescence intensity (a.u.).
For “ATGTTCAACTCATTTCGTATTTTCTTTTGTAAGTACTAACCGGAGTCACCTAGTGCAG”, the binding signal was 8800 fluorescence intensity (a.u.).
On to “AACTTGGGCACTACCACCACTCGCCTCACACTCACTCGCTCGGAGTCACCTAGTGCAG”, for which the binding signal was 8600 fluorescence intensity (a.u.).
In the case of “GCCCACCTGGATCACAATGTGCCGTGCTGTCCTCGTCTCTCGGAGTCACCTAGTGCAG”, the binding signal is 12000 fluorescence intensity (a.u.).
As for “CCGTATCGTTTACTATTTGTTATTTTCTACTTATTTGTTACGGAGTCACCTAGTGCAG”, the binding signal is 9030 fluorescence intensity (a.u.).
Under “CCTACTCGTTCCACTTCTCCATGGCGCAGGCCGTGCTCACCGGAGTCACCTAGTGCAG” stands 10500 fluorescence intensity (a.u.).
On to “CATGCAGCTTCCTCATTTTAGCCTTTTTCCGAGTTCCGACCGGAGTCACCTAGTGCAG”, for which the binding signal was 9580 fluorescence intensity (a.u.).
As for “ACTGTATTTTTGGATTTCCTCTTCCATGCAATTCCATCGTCGGAGTCACCTAGTGCAG”, the binding signal is 10300 fluorescence intensity (a.u.).
The figure for “ATGGAGTATGTTGGGCCGATAGCCCATTTGCATTAATGGTCGGAGTCACCTAGTGCAG” is 8260 fluorescence intensity (a.u.).
The figure for “GTGGTTCCGCTTATTTTCTAACAGCATTTCTTTTTTTTATCGGAGTCACCTAGTGCAG” is 11600 fluorescence intensity (a.u.); for “CGCGCCCCGCACCGCGCCGCCGCGAGCCGCAGCCGACTGCCGGAGTCACCTAGTGCAG” it is 8200 fluorescence intensity (a.u.).
The figure for “CATAGTATCTGCACTTTTTCCTATGATATTATTTGTGGTTCGGAGTCACCTAGTGCAG” is 14700 fluorescence intensity (a.u.); for “GATAACGAGGCCTTTTTCCTTTCCCGTTAATATCCATCTTCGGAGTCACCTAGTGCAG” it is 8840 fluorescence intensity (a.u.); for “ATCTTCCCGTGGAAAACAGTTTGCATGCGTTGTACATGTTCGGAGTCACCTAGTGCAG” it is 11300 fluorescence intensity (a.u.).
“TTCTTGAAACTATTCCATATGGTTTTTTTTAAAAAAATCCCGGAGTCACCTAGTGCAG”: the binding signal is 8150 fluorescence intensity (a.u.).
Regarding “AGTTAGTCAAGCGTATCCTATTTTACGTGCCCGCGCGAATCGGAGTCACCTAGTGCAG”, the binding signal was 9610 fluorescence intensity (a.u.).
The figure for “GGTTGCAATTTGAAGTTGGTGTAACTTTACTGTTTTTTTCCGGAGTCACCTAGTGCAG” is 8950 fluorescence intensity (a.u.).
The figure for “CTACCAAGTACCAACCGAACCTTTTTCTTTTGGCTAATTTCGGAGTCACCTAGTGCAG” is 8750 fluorescence intensity (a.u.).

These data come from publication PMC7819943, “Rice protein-binding microarrays: a tool to detect cis-acting elements near promoter regions in rice”.
